Experimental findings from publication PMC10558778 are described below.

Sequences of proteins named here, by UniProt entry; tags and fusion partners are left off.
UniProt Q9UKV8: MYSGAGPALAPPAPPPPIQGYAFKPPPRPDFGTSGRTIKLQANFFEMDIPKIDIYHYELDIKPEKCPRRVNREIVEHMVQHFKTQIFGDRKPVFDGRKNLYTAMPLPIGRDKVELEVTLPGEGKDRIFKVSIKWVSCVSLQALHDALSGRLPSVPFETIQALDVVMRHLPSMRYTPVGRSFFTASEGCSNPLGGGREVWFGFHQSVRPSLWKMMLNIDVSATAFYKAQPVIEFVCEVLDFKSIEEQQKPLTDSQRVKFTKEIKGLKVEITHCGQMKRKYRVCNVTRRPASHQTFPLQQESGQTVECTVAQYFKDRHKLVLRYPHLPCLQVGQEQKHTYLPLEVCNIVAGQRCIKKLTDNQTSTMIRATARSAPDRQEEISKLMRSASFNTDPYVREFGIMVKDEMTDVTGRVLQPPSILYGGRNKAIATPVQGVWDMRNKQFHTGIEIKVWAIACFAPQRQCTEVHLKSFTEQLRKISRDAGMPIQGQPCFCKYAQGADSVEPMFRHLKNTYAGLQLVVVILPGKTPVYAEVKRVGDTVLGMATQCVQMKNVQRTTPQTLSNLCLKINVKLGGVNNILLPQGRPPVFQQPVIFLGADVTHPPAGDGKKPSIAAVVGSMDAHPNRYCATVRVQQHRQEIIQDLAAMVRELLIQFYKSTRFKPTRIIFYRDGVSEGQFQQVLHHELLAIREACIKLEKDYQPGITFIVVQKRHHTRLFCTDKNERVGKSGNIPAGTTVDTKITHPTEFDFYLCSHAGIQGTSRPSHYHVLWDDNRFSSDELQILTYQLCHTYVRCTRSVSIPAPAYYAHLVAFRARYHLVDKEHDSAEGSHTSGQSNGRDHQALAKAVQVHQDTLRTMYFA

What all share (assay): co-IP; Ago2, Drosha or Dgcr8 immunoprecipitated from FL and ΔN cells (SBB buffer: 1% Triton X-100, 150 mM NaCl, 50 mM Tris-Cl pH 7.5, 1 mM EDTA; 4°C), immunoblot with anti-Drosha, anti-Dgcr8, anti-Ago2 or anti-Ddx5; non-specific IgG as control
For test [1], the target named is T1, DiGeorge syndrome critical region 8 (Dgcr8) (human (endogenous in HEK293T)) (UniProt Q8WYQ5).
T1 sequence: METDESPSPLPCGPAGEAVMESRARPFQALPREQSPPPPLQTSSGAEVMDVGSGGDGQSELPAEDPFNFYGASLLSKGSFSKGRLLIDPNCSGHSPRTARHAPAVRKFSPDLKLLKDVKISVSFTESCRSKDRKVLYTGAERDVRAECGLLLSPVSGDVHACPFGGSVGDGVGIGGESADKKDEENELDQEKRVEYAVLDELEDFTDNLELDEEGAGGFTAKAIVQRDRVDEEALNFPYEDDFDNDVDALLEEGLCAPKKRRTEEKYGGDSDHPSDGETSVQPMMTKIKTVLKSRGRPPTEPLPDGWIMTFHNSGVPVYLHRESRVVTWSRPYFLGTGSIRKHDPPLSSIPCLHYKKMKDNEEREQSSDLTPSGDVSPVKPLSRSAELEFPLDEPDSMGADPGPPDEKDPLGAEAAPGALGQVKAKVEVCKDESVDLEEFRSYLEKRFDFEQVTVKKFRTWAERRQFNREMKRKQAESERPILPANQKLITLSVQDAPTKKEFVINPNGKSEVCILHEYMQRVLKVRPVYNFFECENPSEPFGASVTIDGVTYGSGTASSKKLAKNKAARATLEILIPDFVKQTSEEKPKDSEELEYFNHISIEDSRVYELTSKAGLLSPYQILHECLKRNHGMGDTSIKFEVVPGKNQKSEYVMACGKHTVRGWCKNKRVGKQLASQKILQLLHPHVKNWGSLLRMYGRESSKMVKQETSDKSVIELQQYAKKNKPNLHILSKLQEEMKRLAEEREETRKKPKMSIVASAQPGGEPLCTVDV

Test [2] has as its target T2, full length Drosha (FL; aa 1-1374) (human) (UniProt Q9NRR4).
T2 sequence: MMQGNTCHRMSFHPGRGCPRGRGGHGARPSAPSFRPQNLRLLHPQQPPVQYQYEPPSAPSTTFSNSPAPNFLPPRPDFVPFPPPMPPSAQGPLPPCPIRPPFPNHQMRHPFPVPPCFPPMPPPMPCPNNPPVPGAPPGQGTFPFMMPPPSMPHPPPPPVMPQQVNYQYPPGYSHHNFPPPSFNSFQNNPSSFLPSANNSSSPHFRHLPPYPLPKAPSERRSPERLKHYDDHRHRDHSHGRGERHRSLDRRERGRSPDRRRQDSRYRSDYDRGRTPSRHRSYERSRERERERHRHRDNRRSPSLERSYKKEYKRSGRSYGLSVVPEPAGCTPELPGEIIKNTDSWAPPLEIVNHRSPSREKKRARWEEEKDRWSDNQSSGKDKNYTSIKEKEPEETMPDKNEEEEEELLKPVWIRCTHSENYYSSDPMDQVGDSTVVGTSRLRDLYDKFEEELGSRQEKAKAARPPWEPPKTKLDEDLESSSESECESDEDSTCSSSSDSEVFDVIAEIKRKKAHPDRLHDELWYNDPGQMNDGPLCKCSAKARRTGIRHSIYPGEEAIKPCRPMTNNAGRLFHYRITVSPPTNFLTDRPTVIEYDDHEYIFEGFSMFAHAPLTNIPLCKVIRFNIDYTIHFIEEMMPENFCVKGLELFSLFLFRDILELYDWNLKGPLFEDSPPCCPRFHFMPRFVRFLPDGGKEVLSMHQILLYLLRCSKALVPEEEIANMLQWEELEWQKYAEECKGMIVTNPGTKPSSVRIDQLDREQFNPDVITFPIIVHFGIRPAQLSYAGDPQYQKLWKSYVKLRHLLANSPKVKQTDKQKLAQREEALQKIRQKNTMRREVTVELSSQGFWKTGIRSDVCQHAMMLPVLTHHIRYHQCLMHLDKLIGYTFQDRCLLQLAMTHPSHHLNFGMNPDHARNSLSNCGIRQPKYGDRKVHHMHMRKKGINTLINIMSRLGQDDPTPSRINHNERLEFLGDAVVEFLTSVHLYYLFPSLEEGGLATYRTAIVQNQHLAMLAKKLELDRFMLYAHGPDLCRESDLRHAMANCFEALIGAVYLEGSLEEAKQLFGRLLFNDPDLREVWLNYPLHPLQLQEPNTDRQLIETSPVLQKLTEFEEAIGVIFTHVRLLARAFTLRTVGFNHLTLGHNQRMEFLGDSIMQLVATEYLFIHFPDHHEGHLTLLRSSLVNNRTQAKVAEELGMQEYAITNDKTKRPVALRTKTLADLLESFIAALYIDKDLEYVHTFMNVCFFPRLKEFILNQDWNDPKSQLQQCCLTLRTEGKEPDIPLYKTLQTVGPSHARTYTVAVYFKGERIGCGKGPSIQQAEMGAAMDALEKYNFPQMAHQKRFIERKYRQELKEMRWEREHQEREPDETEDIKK

Test [3] concerns the target T3, ΔN-Drosha (Drosha lacking the NTR; aa 396-1374) (human) (UniProt Q9NRR4).
T3 sequence: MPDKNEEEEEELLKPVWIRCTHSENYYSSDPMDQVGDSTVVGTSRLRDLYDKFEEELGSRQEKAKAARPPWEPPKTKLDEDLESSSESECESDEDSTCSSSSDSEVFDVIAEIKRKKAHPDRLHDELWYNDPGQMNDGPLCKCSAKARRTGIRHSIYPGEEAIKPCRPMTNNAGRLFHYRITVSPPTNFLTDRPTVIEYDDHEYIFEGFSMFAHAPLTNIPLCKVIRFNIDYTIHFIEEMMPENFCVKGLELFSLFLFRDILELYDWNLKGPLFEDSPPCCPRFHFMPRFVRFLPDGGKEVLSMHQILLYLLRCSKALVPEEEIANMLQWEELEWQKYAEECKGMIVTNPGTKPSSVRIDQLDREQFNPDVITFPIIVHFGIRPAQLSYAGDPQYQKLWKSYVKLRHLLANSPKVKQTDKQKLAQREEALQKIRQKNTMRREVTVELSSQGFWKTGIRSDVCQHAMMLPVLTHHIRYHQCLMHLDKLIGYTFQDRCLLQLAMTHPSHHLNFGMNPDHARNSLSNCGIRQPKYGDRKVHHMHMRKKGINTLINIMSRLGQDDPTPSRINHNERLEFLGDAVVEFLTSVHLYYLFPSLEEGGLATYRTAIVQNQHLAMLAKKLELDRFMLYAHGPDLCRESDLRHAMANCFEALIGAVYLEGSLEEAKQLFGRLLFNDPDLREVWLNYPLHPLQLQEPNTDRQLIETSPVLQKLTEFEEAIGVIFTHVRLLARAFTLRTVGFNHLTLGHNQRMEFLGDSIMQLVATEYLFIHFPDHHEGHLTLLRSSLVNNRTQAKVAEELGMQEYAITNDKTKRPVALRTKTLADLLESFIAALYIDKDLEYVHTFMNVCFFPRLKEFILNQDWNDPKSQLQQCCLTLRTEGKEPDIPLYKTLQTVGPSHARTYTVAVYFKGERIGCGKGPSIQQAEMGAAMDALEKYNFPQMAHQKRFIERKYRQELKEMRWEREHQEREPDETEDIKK

No constants are given. Whether binding was seen depends on the method and setting. In cells and extracts the contact can be indirect. Some results given as binding are weak or reduced against the parent protein; the word gives no strength.

Regarding “Argonaute 2 (Ago2) (from UniProt Q9UKV8 1-859)”, the binding entry in test [1] is on record as “binds”; in test [2], “no binding”; in test [3] it was “no binding”.
